Data as given in PubChem BioAssay AID1508597 (Cure First, 2020).
Shown is a random part of the about 2,100 reagents, under one of the conditions tested. 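Calls flag viability under 80% in either arm, not effects specific to rucaparib; the reference for percent is not stated.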 Entries without a mark were called inactive. Some reagents were tested in more than one well and are listed for each. Not stated in the record: the 100% reference.

- Test: 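Genes whose silencing sensitises or protects ovarian cancer cells against rucaparib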 (primary screen)
- Cells: human ovarian carcinoma lines grown from tumours: OCI-P5x (papillary serous) and OCI-C5x (clear cell)
- Reagents: siRNA pool against human genes, 1.25 pmol siRNA per well
- Time to read-out: 72 h or 96 h, depending on the cell culture
- Conditions: rucaparib 20 µM (about IC30) or vehicle, present until read-out
- Rucaparib or vehicle: Vehicle
- Cell line: OCI-C5x (clear cell)
- Measurement: 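Luminescent ATP-based viability assay read 72 or 96 h after transfection, depending on culture, given as normalised percent viability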
- Reading the numbers: viability, normalised: higher = more viable cells remaining
- Hit rule: 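a well counts as a hit if its normalised viability is under 80 percent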
- Meaning of the calls: active = viability under 80%; inactive = viability 80% or more

gene	technical replicate	viability, normalised (%)
F3 (GeneID 2152)	1	47.2 (active)
F3 (GeneID 2152)	2	48 (active)
F3 (GeneID 2152)	3	55.2 (active)
ATAD2 (GeneID 29028)	1	39.9 (active)
ATAD2 (GeneID 29028)	2	40.9 (active)
ATAD2 (GeneID 29028)	3	36.1 (active)
UHRF1 (GeneID 29128)	1	49.6 (active)
UHRF1 (GeneID 29128)	1	35.8 (active)
UHRF1 (GeneID 29128)	2	63 (active)
UHRF1 (GeneID 29128)	2	47.8 (active)
UHRF1 (GeneID 29128)	3	52.7 (active)
UHRF1 (GeneID 29128)	3	47.3 (active)
TOP3B (GeneID 8940)	1	105
TOP3B (GeneID 8940)	2	55.7 (active)
TOP3B (GeneID 8940)	3	57.9 (active)
MIS18BP1 (GeneID 55320)	1	45.7 (active)
MIS18BP1 (GeneID 55320)	2	39.4 (active)
MIS18BP1 (GeneID 55320)	3	43.2 (active)
ARL8A (GeneID 127829)	1	41.1 (active)
ARL8A (GeneID 127829)	2	51.6 (active)
ARL8A (GeneID 127829)	3	31.9 (active)
BRCC3 (GeneID 79184)	1	61.8 (active)
BRCC3 (GeneID 79184)	1	67.2 (active)
BRCC3 (GeneID 79184)	2	55.8 (active)
BRCC3 (GeneID 79184)	2	71.2 (active)
BRCC3 (GeneID 79184)	3	54.8 (active)
BRCC3 (GeneID 79184)	3	64.4 (active)
MARK2 (GeneID 2011)	1	55.2 (active)
MARK2 (GeneID 2011)	2	47 (active)
MARK2 (GeneID 2011)	3	31.9 (active)
SRSF1 (GeneID 6426)	1	31.5 (active)
SRSF1 (GeneID 6426)	2	38 (active)
SRSF1 (GeneID 6426)	3	34.3 (active)
MUSK (GeneID 4593)	1	68.1 (active)
MUSK (GeneID 4593)	2	69.9 (active)
MUSK (GeneID 4593)	3	57.4 (active)
PMS2P4 (GeneID 5382)	1	64.7 (active)
PMS2P4 (GeneID 5382)	2	56.2 (active)
PMS2P4 (GeneID 5382)	3	70.5 (active)
PIK3R3 (GeneID 8503)	1	50.7 (active)
PIK3R3 (GeneID 8503)	2	58.8 (active)
PIK3R3 (GeneID 8503)	3	61.8 (active)
RPS6KA4 (GeneID 8986)	1	87
RPS6KA4 (GeneID 8986)	2	70.5 (active)
RPS6KA4 (GeneID 8986)	3	59.8 (active)
POLQ (GeneID 10721)	1	48.5 (active)
POLQ (GeneID 10721)	1	59.9 (active)
POLQ (GeneID 10721)	2	64.2 (active)
POLQ (GeneID 10721)	2	40.1 (active)
POLQ (GeneID 10721)	3	56.9 (active)
POLQ (GeneID 10721)	3	37.8 (active)
RIOK1 (GeneID 83732)	1	57.2 (active)
RIOK1 (GeneID 83732)	2	54.5 (active)
RIOK1 (GeneID 83732)	3	58.8 (active)
RAD23A (GeneID 5886)	1	22.2 (active)
RAD23A (GeneID 5886)	2	26.2 (active)
RAD23A (GeneID 5886)	3	47.1 (active)

Reformatted: results already given
{"gene": "RIOK1 (GeneID 83732)", "technical replicate": "3", "viability, normalised (%)": "58.8 (active)"}
{"gene": "RAD23A (GeneID 5886)", "technical replicate": "1", "viability, normalised (%)": "22.2 (active)"}
{"gene": "RAD23A (GeneID 5886)", "technical replicate": "2", "viability, normalised (%)": "26.2 (active)"}
{"gene": "RAD23A (GeneID 5886)", "technical replicate": "3", "viability, normalised (%)": "47.1 (active)"}
